The target in the assay is Hydroxyacyl-CoA dehydrogenase alpha subunit (HADHA) (human (endogenous in HO-8910)) (UniProt P40939). Put plainly: affinity purification with mass spectrometry; HO-8910 lysate (immunoprecipitation lysis buffer with 100 µM PMSF), protein A-agarose with anti-HADHA antibody (1:50) or normal rabbit IgG (1 µg/ml); interacting proteins identified by mass spectrometry.

By UniProt entry, the sequences of proteins in these tests, tags left out. Residues count along the entry.
UniProt P40939, residues 37-763: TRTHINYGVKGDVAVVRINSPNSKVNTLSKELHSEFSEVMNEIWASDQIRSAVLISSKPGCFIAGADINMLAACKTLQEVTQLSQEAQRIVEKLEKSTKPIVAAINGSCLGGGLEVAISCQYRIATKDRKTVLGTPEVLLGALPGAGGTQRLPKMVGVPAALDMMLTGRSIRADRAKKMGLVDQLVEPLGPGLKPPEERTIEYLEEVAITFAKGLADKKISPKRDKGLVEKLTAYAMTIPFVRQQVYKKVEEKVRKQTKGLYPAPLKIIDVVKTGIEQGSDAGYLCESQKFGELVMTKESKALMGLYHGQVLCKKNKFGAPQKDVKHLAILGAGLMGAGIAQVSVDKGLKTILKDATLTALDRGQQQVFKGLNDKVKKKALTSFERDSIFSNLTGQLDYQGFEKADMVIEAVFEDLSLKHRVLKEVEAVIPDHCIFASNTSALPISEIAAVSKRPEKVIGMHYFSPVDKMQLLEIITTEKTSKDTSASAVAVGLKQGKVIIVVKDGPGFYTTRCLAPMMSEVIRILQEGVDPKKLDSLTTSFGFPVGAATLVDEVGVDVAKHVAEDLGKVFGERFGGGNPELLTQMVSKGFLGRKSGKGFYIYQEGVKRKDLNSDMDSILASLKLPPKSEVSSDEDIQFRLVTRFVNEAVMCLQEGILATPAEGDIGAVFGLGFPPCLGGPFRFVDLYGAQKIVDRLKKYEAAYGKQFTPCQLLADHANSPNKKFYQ
UniProt P12004: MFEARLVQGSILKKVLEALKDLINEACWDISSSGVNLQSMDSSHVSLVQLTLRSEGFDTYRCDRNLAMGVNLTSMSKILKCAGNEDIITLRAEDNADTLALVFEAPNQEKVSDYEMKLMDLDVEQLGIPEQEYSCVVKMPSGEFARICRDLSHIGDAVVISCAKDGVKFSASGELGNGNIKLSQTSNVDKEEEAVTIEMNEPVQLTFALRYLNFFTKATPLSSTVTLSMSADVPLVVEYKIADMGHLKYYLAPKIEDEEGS

These are yes or no findings as the source states them, for the method shown. Binding seen in cells or lysates may run through a third protein. Here binding means that the protein was enriched with, or labelled near, the bait; the list need not be complete.

As for PCNA (from UniProt P12004 1-261), the binding entry is listed as “binds”.

B1: CAT (protein, UniProt P04040 1-527)
chain: MADSRDPASDQMQHWKEQRAAQKADVLTTGAGNPVGDKLNVITVGPRGPLLVQDVVFTDEMAHFDRERIPERVVHAKGAGAFGYFEVTHDITKYSKAKVFEHIGKKTPIAVRFSTVAGESGSADTVRDPRGFAVKFYTEDGNWDLVGNNTPIFFIRDPILFPSFIHSQKRNPQTHLKDPDMVWDFWSLRPESLHQVSFLFSDRGIPDGHRHMNGYGSHTFKLVNANGEAVYCKFHYKTDQGIKNLSVEDAARLSQEDPDYGIRDLFNAIATGKYPSWTFYIQVMTFNQAETFPFNPFDLTKVWPHKDYPLIPVGKLVLNRNPVNYFAEVEQIAFDPSNMPPGIEASPDKMLQGRLFAYPDTHRHRLGPNYLHIPVNCPYRARVANYQRDGPMCMQDNQGGAPNYYPNSFGAPEQQPSALEHSIQYSGEVRRFNTANDDNVTQVRAFYVNVLNEEQRKRLCENIAGHLKDAQIFIQKKAVKNFTEVHPDYGSHIQALLDKYNAEKPKNAIHTFVQSGSHLAAREKANL
Take B1: the binding result was “binds”.

B2: PGD (protein, UniProt P52209 1-483)
chain: MAQADIALIGLAVMGQNLILNMNDHGFVVCAFNRTVSKVDDFLANEAKGTKVVGAQSLKEMVSKLKKPRRIILLVKAGQAVDDFIEKLVPLLDTGDIIIDGGNSEYRDTTRRCRDLKAKGILFVGSGVSGGEEGARYGPSLMPGGNKEAWPHIKTIFQGIAAKVGTGEPCCDWVGDEGAGHFVKMVHNGIEYGDMQLICEAYHLMKDVLGMAQDEMAQAFEDWNKTELDSFLIEITANILKFQDTDGKHLLPKIRDSAGQKGTGKWTAISALEYGVPVTLIGEAVFARCLSSLKDERIQASKKLKGPQKFQFDGDKKSFLEDIRKALYASKIISYAQGFMLLRQAATEFGWTLNYGGIALMWRGGCIIRSVFLGKIKDAFDRNPELQNLLLDDFFKSAVENCQDSWRRAVSTGVQAGIPMPCFTTALSFYDGYRHEMLPASLIQAQRDYFGAHTYELLAKPGQFIHTNWTGHGGTVSSSSYNA
As to B2, the binding result was “binds”.

Source of the values: publication PMC10658966.
